Source: publication PMC4468853
Results are given in words; binding and its absence hold for the method and conditions named. In cells and extracts the contact can be indirect. Here binding means that the protein was enriched with, or labelled near, the bait; the list need not be complete.

The chains behind the UniProt entries cited, without tags or fusion partners.
UniProt Q8WW35: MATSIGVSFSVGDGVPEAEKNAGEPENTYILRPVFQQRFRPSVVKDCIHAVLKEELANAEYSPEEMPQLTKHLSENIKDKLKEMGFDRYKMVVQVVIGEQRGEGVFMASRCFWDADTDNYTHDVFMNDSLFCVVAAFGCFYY
UniProt Q96EX3: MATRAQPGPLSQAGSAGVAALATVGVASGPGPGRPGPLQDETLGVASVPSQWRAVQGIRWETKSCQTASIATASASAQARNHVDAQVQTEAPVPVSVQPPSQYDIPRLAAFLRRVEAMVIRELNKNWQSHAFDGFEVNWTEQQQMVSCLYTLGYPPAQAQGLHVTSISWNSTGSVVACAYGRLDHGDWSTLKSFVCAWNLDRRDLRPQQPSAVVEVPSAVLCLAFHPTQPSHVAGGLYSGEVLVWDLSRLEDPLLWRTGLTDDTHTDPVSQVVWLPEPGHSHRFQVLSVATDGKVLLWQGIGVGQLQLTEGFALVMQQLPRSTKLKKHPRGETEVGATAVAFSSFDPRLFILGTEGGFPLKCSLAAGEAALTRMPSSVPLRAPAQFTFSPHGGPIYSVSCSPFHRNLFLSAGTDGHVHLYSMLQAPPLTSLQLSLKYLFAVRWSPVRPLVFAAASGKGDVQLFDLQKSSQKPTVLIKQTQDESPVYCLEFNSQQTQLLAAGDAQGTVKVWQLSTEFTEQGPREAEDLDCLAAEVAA
UniProt Q9NP97: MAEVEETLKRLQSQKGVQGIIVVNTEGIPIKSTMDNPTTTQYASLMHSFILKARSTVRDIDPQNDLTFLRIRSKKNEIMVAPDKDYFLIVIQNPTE
UniProt Q8WVS4: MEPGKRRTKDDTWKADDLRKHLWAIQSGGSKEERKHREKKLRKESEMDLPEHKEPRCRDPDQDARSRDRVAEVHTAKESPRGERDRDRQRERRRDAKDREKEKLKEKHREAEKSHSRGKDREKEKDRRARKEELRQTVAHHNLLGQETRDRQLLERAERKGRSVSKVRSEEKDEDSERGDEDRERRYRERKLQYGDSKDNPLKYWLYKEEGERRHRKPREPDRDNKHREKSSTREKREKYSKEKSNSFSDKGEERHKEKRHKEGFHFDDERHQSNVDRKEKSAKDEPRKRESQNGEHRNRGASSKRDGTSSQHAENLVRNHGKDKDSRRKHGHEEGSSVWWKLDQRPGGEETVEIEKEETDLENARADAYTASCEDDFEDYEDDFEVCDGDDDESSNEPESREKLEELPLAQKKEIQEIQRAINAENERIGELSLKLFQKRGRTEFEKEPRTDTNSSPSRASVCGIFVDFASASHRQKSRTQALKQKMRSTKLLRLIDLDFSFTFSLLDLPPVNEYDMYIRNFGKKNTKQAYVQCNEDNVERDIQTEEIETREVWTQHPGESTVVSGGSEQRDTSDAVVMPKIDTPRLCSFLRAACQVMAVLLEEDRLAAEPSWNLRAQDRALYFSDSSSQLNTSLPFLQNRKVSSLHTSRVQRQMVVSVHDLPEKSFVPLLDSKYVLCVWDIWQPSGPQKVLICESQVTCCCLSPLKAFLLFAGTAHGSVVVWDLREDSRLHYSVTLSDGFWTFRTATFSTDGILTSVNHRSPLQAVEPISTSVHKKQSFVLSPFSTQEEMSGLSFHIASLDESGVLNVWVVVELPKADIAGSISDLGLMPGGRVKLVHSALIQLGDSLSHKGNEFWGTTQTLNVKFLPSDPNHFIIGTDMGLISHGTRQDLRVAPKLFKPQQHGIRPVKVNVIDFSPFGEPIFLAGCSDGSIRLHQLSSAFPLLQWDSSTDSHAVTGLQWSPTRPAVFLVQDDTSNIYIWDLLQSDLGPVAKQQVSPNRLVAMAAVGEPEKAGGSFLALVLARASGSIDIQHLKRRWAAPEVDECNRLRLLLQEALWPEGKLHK
UniProt P51808: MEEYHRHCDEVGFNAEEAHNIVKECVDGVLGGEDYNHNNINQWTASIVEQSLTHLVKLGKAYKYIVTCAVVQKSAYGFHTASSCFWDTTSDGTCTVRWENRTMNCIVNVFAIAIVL

target: SF-TAP (Streptavidin/FLAG Tandem Affinity Purification)-tagged TCTEX1D2 (human) (UniProt Q8WW35); experiment: affinity purification with mass spectrometry; SF-TAP-tagged TCTEX1D2 expressed in HEK293T cells; cells expressing SF-TAP-RAF1 as control

Question: For WDR34 (from UniProt Q96EX3 1-536), which binding is on record?
Answer: binds

Question: DYNLRB1 (from UniProt Q9NP97 1-96) was tested. Which binding did it give?
Answer: binds

Question: With WDR60 (from UniProt Q8WVS4 1-1066) as the substance, how does the binding read?
Answer: binds

Question: With DYNLT3 (from UniProt P51808 1-116) as the substance, how does the binding read?
Answer: binds
